Patent US20220332789A1
Results are given in words; binding and its absence hold for the method and conditions named. Some binding calls cover weakened binding; strength is not graded here. For part of these data: Sequences can lack the tags named with a protein. Values belong to the binder of their own block, whether it stands above or below them.

Amino acid sequences for entries named in this document (tags omitted). A change or cut given only in a name is not applied to a line headed by its entry. Chains listed by the source or under a name are the forms on record and can include a tag or linker.
IgE-Fc (P01854, form named): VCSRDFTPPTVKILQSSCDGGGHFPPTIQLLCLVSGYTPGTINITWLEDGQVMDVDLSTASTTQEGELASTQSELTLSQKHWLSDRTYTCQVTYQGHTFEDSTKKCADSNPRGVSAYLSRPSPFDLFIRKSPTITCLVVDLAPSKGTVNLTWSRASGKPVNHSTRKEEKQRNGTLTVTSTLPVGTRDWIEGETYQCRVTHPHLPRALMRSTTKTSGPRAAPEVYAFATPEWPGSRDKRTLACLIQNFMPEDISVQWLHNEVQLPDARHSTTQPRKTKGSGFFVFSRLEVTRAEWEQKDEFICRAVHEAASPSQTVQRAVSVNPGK

Key:
IgE-Fc [1] = target: IgE-Fc (UniProt P01854); experiment: flow cytometry competition: 1 nM IgE-Fc-A488 binding to FcεRI on RBL SX-38 cells
IgE-Fc [2] = target: IgE-Fc (UniProt P01854); experiment: SPR (Biacore)
IgE-Fc [3] = target: IgE-Fc (UniProt P01854); experiment: SPR, blank subtracted, anti-IgE molecule 4-0.031 µM over 1:1 α-Cε4 Fab/IgE-Fc complex
IgE-Fc [4] = target: IgE-Fc (UniProt P01854); experiment: SPR dissociation phase, α-Cε4 Fab captured IgE-Fc at average spacings of 40, 80 and 110 nm [left plot]
IgE-Fc [5] = target: IgE-Fc (UniProt P01854); experiment: SPR (Biacore), FIG. 9a
IgE-Fc [6] = target: IgE-Fc (UniProt P01854); experiment: SPR dissociation phase, α-Cε4 Fab captured IgE-Fc at average spacings of 40, 80 and 110 nm [right plot]
IgE-Fc [7] = target: IgE-Fc (UniProt P01854); experiment: SPR dissociation phase, α-Cε4 Fab captured IgE-Fc at average spacings of 40, 80 and 110 nm [middle plot]

- binding (IgE-Fc [1]): binds
- binding (IgE-Fc [2]): binds
- binding (IgE-Fc [3]): binds
- binding (IgE-Fc [4]): binds
- binding (IgE-Fc [5]): binds
B1: anti-IgE^0 (Fc fusion)
chain: EASDLLERLREEVTKLRMELQVSSGFVCNTCPEKWINFQRKCYYFGKGTKQWVHARYACDDMEGQLVSIHSPEEQDFLTKHASHTGSWIGLRNLDLKGEFIWVDGSHVDYSNWAPGEPTSRSQGEDCVMMRGSGRWNDAFCDRKLGAWVCDRLATCTPPASEGSAESMGPDSRPDPDGRLPTPSAPLHSASISAMVRSPRGPTIKPCPPCKCPAPNLEGGPSVFIFPPKIKDVLMISLSPIVTCVVVDVSEDDPDVQISWFVNNVEVHTAQTQTHREDYNSTLRVVSALPIQHQDWMSGKAFACAVNNKDLPAPIERTISKPKGSVRAPQVYVLPPPEEEMTKKQVTLTCMVTDFMPEDIYVEWTNNGKTELNYKNTEPVLDSDGSYFMYSKLRVEKKNWVERNSYSCSVVHEGLHNHHTTKSFSRTPGK

- binding (IgE-Fc [1]): binds
- binding (IgE-Fc [6]): binds
- binding (IgE-Fc [2]): binds
- binding (IgE-Fc [3]): binds
- binding (IgE-Fc [5]): binds
B2: anti-IgE^4 (Fc fusion)
chain: EASDLLERLREEVTKLRMELQVSSGFVCNTCPEKWINFQRKCYYFGKGTKQWVHARYACDDMEGQLVSIHSPEEQDFLTKHASHTGSWIGLRNLDLKGEFIWVDGSHVDYSNWAPGEPTSRSQGEDCVMMRGSGRWNDAFCDRKLGAWVCDRLATCTPPASEGSAESMGPDSRPDPDGRLPTPSAPLHSGGGGSGGGGSGGGGSGGGGSASISAMVRSPRGPTIKPCPPCKCPAPNLEGGPSVFIFPPKIKDVLMISLSPIVTCVVVDVSEDDPDVQISWFVNNVEVHTAQTQTHREDYNSTLRVVSALPIQHQDWMSGKAFACAVNNKDLPAPIERTISKPKGSVRAPQVYVLPPPEEEMTKKQVTLTCMVTDFMPEDIYVEWTNNGKTELNYKNTEPVLDSDGSYFMYSKLRVEKKNWVERNSYSCSVVHEGLHNHHTTKSFSRTPGK

- binding (IgE-Fc [1]): binds
- binding (IgE-Fc [2]): binds
- binding (IgE-Fc [7]): binds
- binding (IgE-Fc [3]): binds
- binding (IgE-Fc [5]): binds
B3: hCD23-G4S3-mIgG2a Fc (Fc fusion)
chain: EASDLLERLREEVTKLRMELQVSSGFVCNTCPEKWINFQRKCYYFGKGTKQWVHARYACDDMEGQLVSIHSPEEQDFLTKHASHTGSWIGLRNLDLKGEFIWVDGSHVDYSNWAPGEPTSRSQGEDCVMMRGSGRWNDAFCDRKLGAWVCDRLATCTPPASEGSAESMGPDSRPDPDGRLPTPSAPLHSGGGGSGGGGSGGGGSASISAMVRSPRGPTIKPCPPCKCPAPNLEGGPSVFIFPPKIKDVLMISLSPIVTCVVVDVSEDDPDVQISWFVNNVEVHTAQTQTHREDYNSTLRVVSALPIQHQDWMSGKAFACAVNNKDLPAPIERTISKPKGSVRAPQVYVLPPPEEEMTKKQVTLTCMVTDFMPEDIYVEWTNNGKTELNYKNTEPVLDSDGSYFMYSKLRVEKKNWVERNSYSCSVVHEGLHNHHTTKSFSRTPGK
